{
  "source": "patent US6436947B1",
  "about": "“Trans cyclopentanyl purine analogs useful as immunosuppressants” (Aventis Pharmaceuticals Inc., priority 1991, dated 2002)",
  "system": "Major Histocompatibility complex (MHC) class II antigen levels on macrophages",
  "experiment": "Regulation of MHC class II expression on macrophages from M. tuberculosis-treated rats (flow cytometry, OX-6/OX-42)",
  "assay_type": "cell-based, rat",
  "details": "10 μM, 18 hours, compared to positive control macrophages from Tuberculosis-treated rats",
  "procedure": "Using the method of Edwards (J. of Cell Biochemistry 5E, 155(1991)), the ability of a compound of formula (1) to reduce Major Histocompatibility complex (MHC) class II antigen levels on macrophages (MΦ) obtained from M. tuberculosis-treated rats may be measured. Cells obtained from treated rats are plated into tissue culture for a period of 4 hours to purify adherent cells, then treated with increasing levels of drug for a period of 18 hours. After this incubation period, cells are scraped from the dishes and stained using flow cytometry analysis with various monoclonal antibodies such as OX-6 a monoclonal antibody specific for MHC class II antigens and OX-42 a monoclonal antibody specific for rat macrophages.",
  "note": "At least one compound was matched to its structure with a doubt left.",
  "data": [
    {"compound": "Cl.Nc1ncnc2c1ncn2[C@@H]1CC[C@@H](O)C1", "note": "(relative stereo) [Example 1, (1R,3R)-trans-1(9-Adenyl)cyclopentan-3-ol Hydrochloride]", "values": [
      {"measurement": "reduction of MHC II antigen expression on rat macrophages in vitro", "value": "~10 33%"}
    ]}
  ]
}
